For one assay, the target named is Wild-type MST3-HA (UniProt Q9Y6E0). Nature of the assay: co-IP; HEK293 cells co-transfected with the two tagged proteins; Triton X-100 lysis buffer (50 mM Tris-HCl pH 7.8, 150 mM NaCl, 1% Triton X-100); 0.5 mg total protein, 1 ug anti-myc or anti-HA antibody overnight at 4°C, protein G-Sepharose; immunoblot with anti-myc and anti-HA. On the technique in general: A western blot detects proteins with antibodies after separation by electrophoresis.

Protein sequences, listed by entry. Tags and fused reporters are not part of them. Lines headed by an entry give the natural chain unless they say otherwise; changes in a name come on top. Chains listed by the source or under a name are the forms on record and can include a tag or linker.
Wild-type MST3-HA (Q9Y6E0, form named): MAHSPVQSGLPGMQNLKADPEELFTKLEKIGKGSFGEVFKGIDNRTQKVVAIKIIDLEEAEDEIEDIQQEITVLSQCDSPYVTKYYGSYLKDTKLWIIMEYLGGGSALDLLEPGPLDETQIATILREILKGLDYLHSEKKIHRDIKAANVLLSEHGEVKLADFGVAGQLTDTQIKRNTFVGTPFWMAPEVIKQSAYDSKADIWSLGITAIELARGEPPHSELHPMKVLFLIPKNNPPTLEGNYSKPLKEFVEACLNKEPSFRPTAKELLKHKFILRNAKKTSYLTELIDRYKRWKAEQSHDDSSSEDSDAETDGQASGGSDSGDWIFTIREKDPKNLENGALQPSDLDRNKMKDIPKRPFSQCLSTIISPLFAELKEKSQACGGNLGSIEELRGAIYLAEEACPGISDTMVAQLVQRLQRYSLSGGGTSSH

In assay [1] the target is ΔP-MST3-HA (MST3 with deletion of the proline-rich domain) (UniProt Q9Y6E0). The assay is described as above.

This passage reports binding results from PMC4924737.

No constants are given. Whether binding was seen depends on the method and setting. In cells and extracts the contact can be indirect. For some of these results: A result given as binding can be weak or reduced; the word gives no strength. For some of these results: Tags and fused reporters may be left off the sequences shown.

With “ΔN-184-VAV2-myc (from UniProt P52735) (domain or fragment)”, the binding entry in the assay with Wild-type MST3-HA was “binds”.

Turning to “ΔN-520-VAV2-myc (from UniProt P52735) (domain or fragment)”, the binding result with Wild-type MST3-HA is listed as “binds”.

Consider “ΔN-655-VAV2-myc (from UniProt P52735) (domain or fragment)”, for which the binding result with Wild-type MST3-HA is recorded as “binds”.

B1: Wild-type VAV2-myc (protein, UniProt P52735 1-878)
chain: MEQWRQCGRWLIDCKVLPPNHRVVWPSAVVFDLAQALRDGVLLCQLLHNLSPGSIDLKDINFRPQMSQFLCLKNIRTFLKVCHDKFGLRNSELFDPFDLFDVRDFGKVISAVSRLSLHSIAQNKGIRPFPSEETTENDDDVYRSLEELADEHDLGEDIYDCVPCEDGGDDIYEDIIKVEVQQPMIRYMQKMGMTEDDKRNCCLLEIQETEAKYYRTLEDIEKNYMSPLRLVLSPADMAAVFINLEDLIKVHHSFLRAIDVSVMVGGSTLAKVFLDFKERLLIYGEYCSHMEHAQNTLNQLLASREDFRQKVEECTLKVQDGKFKLQDLLVVPMQRVLKYHLLLKELLSHSAERPERQQLKEALEAMQDLAMYINEVKRDKETLRKISEFQSSIENLQVKLEEFGRPKIDGELKVRSIVNHTKQDRYLFLFDKVVIVCKRKGYSYELKEIIELLFHKMTDDPMNNKDVKKSHGKMWSYGFYLIHLQGKQGFQFFCKTEDMKRKWMEQFEMAMSNIKPDKANANHHSFQMYTFDKTTNCKACKMFLRGTFYQGYMCTKCGVGAHKECLEVIPPCKFTSPADLDASGAGPGPKMVAMQNYHGNPAPPGKPVLTFQTGDVLELLRGDPESPWWEGRLVQTRKSGYFPSSSVKPCPVDGRPPISRPPSREIDYTAYPWFAGNMERQQTDNLLKSHASGTYLIRERPAEAERFAISIKFNDEVKHIKVVEKDNWIHITEAKKFDSLLELVEYYQCHSLKESFKQLDTTLKYPYKSRERSASRASSRSPASCASYNFSFLSPQGLSFASQGPSAPFWSVFTPRVIGTAVARYNFAARDMRELSLREGDVVRIYSRIGGDQGWWKGETNGRIGWFPSTYVEEEGIQ
For the molecule B1, in assay [1], the binding entry is “no binding”.
